Laboratory results published in US20210078988A1, “MODULATORS OF INDOLEAMINE 2,3-DIOXYGENASE” (GLAXOSMITHKLINE INTELLECTUAL PROPERTY DEVELOPMENT LIMITED, priority 2017, published 2021).

Chains of the proteins cited; added tags and fusions are not shown.
UniProt P14902, whole entry: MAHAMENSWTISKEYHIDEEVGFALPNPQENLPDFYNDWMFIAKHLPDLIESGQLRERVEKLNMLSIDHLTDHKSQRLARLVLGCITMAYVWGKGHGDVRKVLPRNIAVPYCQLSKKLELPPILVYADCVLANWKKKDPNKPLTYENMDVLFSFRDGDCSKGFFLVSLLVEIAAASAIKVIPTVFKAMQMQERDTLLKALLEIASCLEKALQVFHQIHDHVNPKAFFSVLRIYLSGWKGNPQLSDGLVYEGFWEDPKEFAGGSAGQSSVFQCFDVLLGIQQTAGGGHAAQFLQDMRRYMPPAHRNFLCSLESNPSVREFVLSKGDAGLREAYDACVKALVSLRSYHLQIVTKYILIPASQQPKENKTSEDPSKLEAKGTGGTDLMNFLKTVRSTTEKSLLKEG

Molecular target: indoleamine 2, 3-dioxygenase (IDO1) (Homo sapiens, UniProt P14902)
Assay: PBMC IDO1 assay (kynurenine detection via mass spectrometry)
Settings: human PBMC stimulated with IFN-γ and LPS, 2 days, kynurenine by mass spectrometry

IDO1 PBMC pIC50: 7.0
Structure (SMILES): Cc1ccc(C(=O)NC(CC2CCN(C(=O)CC(F)(F)F)CC2)c2ccccc2)s1 (stereo not shown)

The match of structure and compound is tentative.
